The nature of this experiment: qHTS Assay to Find Inhibitors of Chronic Active B-Cell Receptor Signaling. The following applies: ABC-DLBCL IkBa-CBG/CBR reporter, luminescence ratio (green luciferase fused to IkBa over red control in TMD8 lymphoma cells), 4 h. Put shortly:
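TMD8 ABC-DLBCL cells carrying doxycycline-inducible green luciferase fused to IkappaBalpha plus unfused red luciferase were exposed to compounds (up to 46 uM) for 4 hrs at 37C. Activity came from the overlap-corrected green/red luminescence ratio.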

Where [1] appears, read: measured here: CBR red luminescence, cell number.
[2] abbreviates: measured here: IkBa-CBG green luminescence.

The other results are listed elsewhere or left out. Shown are side measurements of this screen, not its main read-out; they come without a call. The list favours compounds with an active or inconclusive main result. Words in brackets tell the shape of the fitted curve; partial curves, single points and poor fits give uncertain potencies.

As for `Nc1nonc1-c1noc(CCCOc2ccc(Cl)cc2Cl)n1`, the AC50 under setting [1] was 3.66 µM [rising, partial curve, poor fit].

As to `O=C(COc1ccc2ccccc2c1)Nc1nc2ccccc2[nH]1`, under setting [1], the AC50 was 6.51 µM [falling, single point]. The same measure, in the same setting: the result for `c1ccc(Cn2c(-c3cncs3)nc3ccccc32)cc1` reads 11.6 µM [falling, partial curve]; that for `O=C(N/N=C/c1ccc(Cl)cc1Cl)Nc1ccccc1`, 1 µM [rising, full curve, poor fit]. As for `Cc1cc(C)c2nc(SCC(=O)N3CC(=O)Nc4ccccc43)c(C#N)cc2c1`, the AC50 is 0.651 µM [rising, full curve] under setting [1] and 0.92 µM [falling, full curve, poor fit] under setting [2]. Take `CCOC(=O)c1cc2c(nc1N)CC(C)(CC)OC2` (configuration not stated): the AC50 under setting [1] is 5.8 µM [rising, partial curve, poor fit]. On the same count and under the same terms, the result for `CN(Cc1cn(-c2ccccc2)nc1-c1ccc(Cl)cc1)C(=O)CCC(=O)O` reads 2.91 µM [rising, full curve]. Still for that read-out and setting: next, `c1ccc(-c2nnc3sc(Cc4cccs4)nn23)cc1`: 1.84 µM [rising, partial curve, poor fit]; `COc1ccc(N2CCN(C(=O)CCCOc3cc(=O)n(C)c4ccccc34)CC2)cc1`: 15.8 µM [rising, single point]. Still for that read-out and setting: the result for `Cc1cc(N/N=C/c2ccc(O)cc2O)nc(N2CCOCC2)n1` reads 15.8 µM [falling, single point]. As to `Clc1cc(Cl)c2nc(N3CCCCC3)sc2c1`, the AC50 under setting [1] is 12.6 µM [rising, partial curve]. Take `COCc1cc(=O)n2[nH]c(-c3ccccc3)cc2n1`: under setting [1], the AC50 was 6.31 µM [falling, partial curve, poor fit]. Consider `Cc1cc(C)c2c(N)c(C(=O)N3CCc4ccccc4C3)sc2n1`, for which the AC50 under setting [1] was 22.4 µM [falling, single point]. Take `CCC(C(=O)NCCC(C)C)N(Cc1ccccc1Cl)C(=O)c1snc(C(N)=O)c1N` (configuration not stated): the AC50 under setting [1] is 35.5 µM [falling, single point]. Same read-out and setting: the result for `COc1ccc(NC(=O)CN(C)C(=O)CC2CCCCC2)cc1` reads 32.6 µM [rising, partial curve, poor fit]; that for `Cc1cc(OCC(O)CNC(C)c2ccccc2)ccc1C(C)C` (configuration not stated), 7.08 µM [falling, partial curve, poor fit]; that for `O=C(Nc1cc([N+](=O)[O-])ccc1O)c1cccc(C(=O)Nc2cc([N+](=O)[O-])ccc2O)c1`, 10 µM [falling, partial curve, poor fit].

With `O=C(N/N=C/c1cn(-c2ccccc2)nc1-c1cccnc1)c1cccnc1`, the AC50 under setting [1] was 2.82 µM [falling, single point]. With `O=C(CSc1nccc(=O)[nH]1)c1c[nH]c2ccccc12`, the AC50 under setting [1] is 4.47 µM [falling, partial curve]. With `CCCN=C1N(CC)C[C@@H]2[C@@H]3C(=O)N(C)C(=O)[C@@H]3[C@](C)(C(=O)OC)N12`, the AC50 under setting [1] was 0.146 µM [rising, full curve, poor fit]. Regarding `CCOC(=O)c1cccc(NC(=O)N2CCOCC2)c1`, the AC50 under setting [1] was 35.5 µM [rising, single point]. Take `CN(C)c1nc(N)nc(-c2ccco2)n1`: the AC50 under setting [1] was 5.17 µM [falling, partial curve, poor fit]. On the same count and under the same terms, next, `COc1ccc2sc(-c3ccccc3OC)c(-c3ccc(OC)nc3)c2c1`: 18.4 µM [rising, partial curve, poor fit]; `Cc1ccc(/C=N/Nc2ccc3ccccc3n2)o1`: 2.82 µM [falling, full curve]; `COc1cccc(CNC(=O)c2cc(S(=O)(=O)N3CCOCC3)cn2C)c1`: 2.82 µM [rising, partial curve]. Still for that read-out and setting: the result for `Cc1cc(C)c(C)c(N=Nc2nc3ccccc3n2C)c1C` reads 0.651 µM [rising, full curve, poor fit].

For `S=C(Nc1nc2c(s1)CCCC2)NC1CC1`, the AC50 under setting [2] is 17.8 µM [falling, single point].

As for `COc1ccc(Oc2cc(C)c3ccccc3n2)cc1`, the AC50 under setting [1] was 11.2 µM [rising, partial curve, poor fit]. Turning to `O=C(Nc1c(C(=O)Nc2cccc3ccccc23)cnn1-c1ccccc1)c1ccco1`, the AC50 under setting [1] was 9.2 µM [falling, partial curve, poor fit]. Same read-out and setting: the result for `CS(=O)(=O)N(CC(=O)Nc1ccc2c(c1)OCO2)c1ccc(Cl)cc1` reads 6.31 µM [falling, partial curve]. On the same count and under the same terms, the result for `Cc1noc(C)c1S(=O)(=O)N1CCCC(C(=O)NCCc2ccc(Cl)cc2)C1` (configuration not stated) reads 29.1 µM [falling, single point]; that for `CN(C)c1ccc(-c2nnn(CC(=O)Nc3ccccc3N3CCOCC3)n2)cc1`, 14.1 µM [falling, single point]; that for `O=C(NC(Cc1c[nH]c2ccccc12)C(=O)O)/C(=C/c1ccco1)NC(=O)c1ccccc1` (configuration not stated), 35.5 µM [falling, single point]. For `O=C1CSC(=S)N1c1cccc(F)c1`, under setting [1], the AC50 was 35.5 µM [falling, single point]. On the same count and under the same terms, next, `CCC(=O)Nc1cccc(-c2ccc(N3CCC(C)CC3)nn2)c1`: 1.78 µM [falling, full curve, poor fit]; `N#CC1CCN(C(=O)c2ccc3c(Cl)c4c(nc3c2)CCCC4)CC1`: 35.5 µM [falling, single point]; `CC(=O)c1c(C)nc2ccc(Br)cc2c1C(=O)O`: 5.8 µM [rising, full curve]. On the same count and under the same terms, next, `CC(NC(=O)c1sc2ccccc2c1Cl)C1CCCO1` (configuration not stated): 16.4 µM [falling, single point]; `Fc1ccc2nc(Nc3nc4cc5c(cc4s3)OCO5)sc2c1`: 0.00461 µM [rising, full curve, poor fit]. Still for that read-out and setting: the result for `COc1cc(NC(=O)Nc2ccc(C)cc2)cc([N+](=O)[O-])c1` reads 0.92 µM [rising, full curve, poor fit]. With `COc1ccc(Cc2nnc(SCC(=O)Nc3ccc(C)cc3)n(N)c2=O)cc1`, the AC50 under setting [1] was 13 µM [falling, partial curve, poor fit]. Same read-out and setting: next, `Cc1ccc2nc(NC(=O)c3ccc(Cl)s3)sc2c1`: 1.64 µM [falling, full curve, poor fit]; `CS(=O)(=O)c1ccc(Cl)c(NC(=O)COC(=O)CNC(=O)c2ccc(Br)o2)c1`: 25.9 µM [rising, single point]; `CC(OC(=O)c1ccc2noc(-c3ccccc3)c2c1)C(N)=O` (configuration not stated): 3.98 µM [falling, partial curve].

Consider `O=c1oc2ccccc2c(Nc2ccccc2)c1CN1CCCCC1`, for which, under setting [1], the AC50 is 11.2 µM [falling, partial curve, poor fit]. On to `CCC1=NN(C(=O)c2cccc([N+](=O)[O-])c2)C(O)(c2ccc(C)cc2)C1` (configuration not stated), for which the AC50 under setting [1] was 35.5 µM [falling, single point]. The same measure, in the same setting: the result for `O=C(Cc1ccc(F)cc1)NCc1ccc2c(c1)CCN2C(=O)c1ccc(F)cc1` reads 15.8 µM [rising, partial curve]; that for `Cc1cccc(NC(=O)NCC(c2ccco2)N2CCCCC2)c1` (configuration not stated), 7.08 µM [rising, full curve, poor fit]; that for `Cc1cc(C)n(/N=C/c2ccccc2)c(=O)c1C#N`, 18.4 µM [falling, single point]. Consider `C=CCNC(=S)N1CCN(CCN=Cc2c(C)[nH]n(-c3ccc([N+](=O)[O-])cc3)c2=O)CC1`, for which the AC50 under setting [1] was 11.2 µM [falling, partial curve]. Still for that read-out and setting: next, `O=C(COC(=O)CNC(=O)c1ccc(Cl)cc1Cl)NC(=O)NCc1ccccc1`: 1.3 µM [falling, partial curve, poor fit]; `Cc1nn(-c2ccccc2)c(C)c1C(=O)Oc1ccccc1`: 3.16 µM [rising, single point]; `Cc1cccc(NC(=O)Nc2nnc(N3CCCCC3C)s2)c1C` (configuration not stated): 29.1 µM [rising, single point].

For the compound `COc1ccccc1NC(=O)Nc1ccc(Cc2ccncc2)cc1`, the AC50 under setting [1] was 15.8 µM [falling, single point]. On the same count and under the same terms, the result for `CCCNS(=O)(=O)c1ccc(CCC(=O)N2CCN(c3ccc(F)cc3)CC2)cc1` reads 3.66 µM [falling, full curve]. For the compound `NC(=S)N/N=C/c1ncc(C(F)(F)F)cc1Cl`, the AC50 runs as follows: under setting [1], 12.6 µM [rising, partial curve]; under setting [2], 6.31 µM [falling, partial curve]. As for `C=CCNc1nc(N2CCCC2)nc2ccccc12`, the AC50 under setting [1] is 2.31 µM [rising, partial curve, poor fit]. The same measure, in the same setting: next, `COc1ccccc1NC(=O)COC(=O)CCS(=O)(=O)c1ccc(C)cc1`: 15.8 µM [falling, single point]; `COc1ccc(-c2cc(C(=O)NNC(=O)c3csc(N4CCOCC4)n3)c3ccccc3n2)cc1`: 5.17 µM [rising, single point]; `COc1ccc(CCNC(=O)C(=O)NCC(c2ccco2)S(=O)(=O)c2cccs2)cc1OC` (configuration not stated): 0.2 µM [rising, full curve, poor fit]. Still for that read-out and setting: next, `COc1ccc(CCN2C(=O)CC(N3CCN(S(=O)(=O)c4ccccc4)CC3)C2=O)cc1OC` (configuration not stated): 1.12 µM [rising, full curve, poor fit]. Same read-out and setting: next, `COC1CCCN(Cc2cn(C)nc2-c2ccc(Oc3ccccc3)cc2)C1` (configuration not stated): 3.16 µM [rising, partial curve, poor fit]; `C/C=C(\CS(=O)(=O)c1ccccc1)S(=O)(=O)c1ccccc1`: 0.103 µM [falling, full curve, poor fit]; `CCc1ccc(/C=N/NC(=O)c2ccccn2)cc1`: 3.98 µM [falling, partial curve].

In the case of `Cc1ccccc1Nc1nnc(SCC(=O)c2cc3ccccc3o2)s1`, under setting [1], the AC50 is 5.8 µM [rising, partial curve, poor fit].

For the origin of these results see PubChem BioAssay AID493014 (National Center for Advancing Translational Sciences (NCATS), 2011).
